Read-outs that look alike come from different tables or passages of the source. These are yes or no findings as the source states them, for the method shown. In cells and extracts the contact can be indirect. A yes stands for co-enrichment or nearness to the bait. Other partners may have been found.
Experiments:
[1] = target: S1R-Apex (mouse Sigma 1 Receptor with V5-Apex2 fused to the C terminus) (mouse) (UniProt O55242); experiment: proximity labelling
[2] = target: S1R-Apex (mouse Sigma 1 Receptor with V5-Apex2 fused to the C terminus) (mouse) (UniProt O55242); experiment: proximity labelling; remark: listed apart in the source

The chains behind the UniProt entries cited, without tags or fusion partners. Where a name states a change or a piece, a line headed by the entry shows the natural chain unless it says otherwise.
UniProt O55242: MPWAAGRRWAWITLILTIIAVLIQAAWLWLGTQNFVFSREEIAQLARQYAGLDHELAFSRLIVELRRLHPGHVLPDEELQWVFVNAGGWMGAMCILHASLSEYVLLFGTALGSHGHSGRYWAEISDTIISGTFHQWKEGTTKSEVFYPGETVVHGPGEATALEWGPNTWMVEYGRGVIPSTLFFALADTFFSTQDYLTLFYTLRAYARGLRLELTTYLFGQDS

| Binder | binding [1] | binding [2] |
| --- | --- | --- |
| EFEMP1 (printed as a Fibulin) (protein, UniProt Q12805 18-493) QDTEETITYTQCTDGYEWDPVRQQCKDIDECDIVPDACKGGMKCVNHYGGYLCLPKTAQIIVNNEQPQQETQPAEGTSGATTGVVAASSMATSGVLPGGGFVASAAAVAGPEMQTGRNNFVIRRNPADPQRIPSNPSHRIQCAAGYEQSEHNVCQDIDECTAGTHNCRADQVCINLRGSFACQCPPGYQKRGEQCVDIDECTIPPYCHQRCVNTPGSFYCQCSPGFQLAANNYTCVDINECDASNQCAQQCYNILGSFICQCNQGYELSSDRLNCEDIDECRTSSYLCQYQCVNEPGKFSCMCPQGYQVVRSRTCQDINECETTNECREDEMCWNYHGGFRCYPRNPCQDPYILTPENRCVCPVSNAMCRELPQSIVYKYMSIRSDRSVPSDIFQIQATTIYANTINTFRIKSGNENGEFYLRQTSPVSAMLVLVKSLSGPREHIVDLEMLTVSSIGTFRTSSVLRLTIIVGPFSF | binds | – |
| Lman1 (protein, UniProt P49257 31-510) DGVGGDPAVALPHRRFEYKYSFKGPHLVQSDGTVPFWAHAGNAIPSSDQIRVAPSLKSQRGSVWTKTKAAFENWEVEVTFRVTGRGRIGADGLAIWYAENQGLEGPVFGSADLWNGVGIFFDSFDNDGKKNNPAIVIIGNNGQIHYDHQNDGASQALASCQRDFRNKPYPVRAKITYYQNTLTVMINNGFTPDKNDYEFCAKVENMIIPAQGHFGISAATGGLADDHDVLSFLTFQLTEPGKEPPTPDKEISEKEKEKYQEEFEHFQQELDKKKEEFQKGHPDLQGQPAEEIFESVGDRELRQVFEGQNRIHLEIKQLNRQLDMILDEQRRYVSSLTEEISKRGAGMPGQHGQITQQELDTVVKTQHEILRQVNEMKNSMSETVRLVSGMQHPGSAGGVYETTQHFIDIKEHLHIVKRDIDNLVQRNMPSNEKPKCPELPPFPSCLSTVHFIIFVVVQTVLFIGYIMYRSQQEAAAKKFF | binds | binds |

Further lines, results first:

| binding [1] | binding [2] | Binder |
| --- | --- | --- |
| binds | – | glycyl-tRNA-synthetase (GARS) (enzyme, UniProt P41250 37-739) SAASCPPISLPAAASRSSMDGAGAEEVLAPLRLAVRQQGDLVRKLKEDKAPQVDVDKAVAELKARKRVLEAKELALQPKDDIVDRAKMEDTLKRRFFYDQAFAIYGGVSGLYDFGPVGCALKNNIIQTWRQHFIQEEQILEIDCTMLTPEPVLKTSGHVDKFADFMVKDVKNGECFRADHLLKAHLQKLMSDKKCSVEKKSEMESVLAQLDNYGQQELADLFVNYNVKSPITGNDLSPPVSFNLMFKTFIGPGGNMPGYLRPETAQGIFLNFKRLLEFNQGKLPFAAAQIGNSFRNEISPRSGLIRVREFTMAEIEHFVDPSEKDHPKFQNVADLHLYLYSAKAQVSGQSARKMRLGDAVEQGVINNTVLGYFIGRIYLYLTKVGISPDKLRFRQHMENEMAHYACDCWDAESKTSYGWIEIVGCADRSCYDLSCHARATKVPLVAEKPLKEPKTVNVVQFEPSKGAIGKAYKKDAKLVMEYLAICDECYITEMEMLLNEKGEFTIETEGKTFQLTKDMINVKRFQKTLYVEEVVPNVIEPSFGLGRIMYTVFEHTFHVREGDEQRTFFSFPAVVAPFKCSVLPLSQNQEFMPFVKELSEALTRHGVSHKVDDSSGSIGRRYARTDEIGVAFGVTIDFDTVNKTPHTATLRDRDSMRQIRAEISELPSIVQDLANGNITWADVEARYPLFEGQETGKKETIEE |
| binds | – | Squalene synthase (FDFT1) (enzyme, UniProt P37268 1-417) MEFVKCLGHPEEFYNLVRFRIGGKRKVMPKMDQDSLSSSLKTCYKYLNQTSRSFAAVIQALDGEMRNAVCIFYLVLRALDTLEDDMTISVEKKVPLLHNFHSFLYQPDWRFMESKEKDRQVLEDFPTISLEFRNLAEKYQTVIADICRRMGIGMAEFLDKHVTSEQEWDKYCHYVAGLVGIGLSRLFSASEFEDPLVGEDTERANSMGLFLQKTNIIRDYLEDQQGGREFWPQEVWSRYVKKLGDFAKPENIDLAVQCLNELITNALHHIPDVITYLSRLRNQSVFNFCAIPQVMAIATLAACYNNQQVFKGAVKIRKGQAVTLMMDATNMPAVKAIIYQYMEEIYHRIPDSDPSSSKTRQIISTIRTQNLPNCQLISRSHYSPIYLSFVMLLAALSWQYLTTLSQVTEDYVQTGEH |

— doi:10.1101/2022.06.22.497210
